Data from PMC5778466.
These are yes or no findings as the source states them, for the method shown. Some binding calls cover weakened binding; strength is not graded here. Tags and fused reporters may be left off the sequences shown.

T1: Clr3 fused to the GAL4 DNA binding domain (fission yeast) (UniProt P56523)
T1 sequence: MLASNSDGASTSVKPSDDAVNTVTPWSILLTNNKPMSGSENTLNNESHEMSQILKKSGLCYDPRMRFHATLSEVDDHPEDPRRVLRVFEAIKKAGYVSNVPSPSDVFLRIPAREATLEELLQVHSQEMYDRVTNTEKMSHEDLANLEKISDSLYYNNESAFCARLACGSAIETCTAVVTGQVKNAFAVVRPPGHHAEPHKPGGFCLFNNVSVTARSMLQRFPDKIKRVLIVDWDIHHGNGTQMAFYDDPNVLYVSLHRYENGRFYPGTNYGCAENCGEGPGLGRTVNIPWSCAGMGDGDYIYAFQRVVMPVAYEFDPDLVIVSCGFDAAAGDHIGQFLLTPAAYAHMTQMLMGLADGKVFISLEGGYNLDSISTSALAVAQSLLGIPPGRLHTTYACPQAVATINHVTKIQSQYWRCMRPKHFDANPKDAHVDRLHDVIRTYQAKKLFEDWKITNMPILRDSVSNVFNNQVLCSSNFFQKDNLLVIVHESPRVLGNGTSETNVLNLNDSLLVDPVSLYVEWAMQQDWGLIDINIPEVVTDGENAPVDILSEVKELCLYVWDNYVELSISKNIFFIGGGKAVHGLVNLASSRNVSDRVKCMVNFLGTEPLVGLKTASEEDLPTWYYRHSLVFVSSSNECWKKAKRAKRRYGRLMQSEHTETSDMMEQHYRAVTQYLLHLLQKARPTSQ

T2: Est1 fused to the GAL4 DNA binding domain (fission yeast) (UniProt O74804)
T2 sequence: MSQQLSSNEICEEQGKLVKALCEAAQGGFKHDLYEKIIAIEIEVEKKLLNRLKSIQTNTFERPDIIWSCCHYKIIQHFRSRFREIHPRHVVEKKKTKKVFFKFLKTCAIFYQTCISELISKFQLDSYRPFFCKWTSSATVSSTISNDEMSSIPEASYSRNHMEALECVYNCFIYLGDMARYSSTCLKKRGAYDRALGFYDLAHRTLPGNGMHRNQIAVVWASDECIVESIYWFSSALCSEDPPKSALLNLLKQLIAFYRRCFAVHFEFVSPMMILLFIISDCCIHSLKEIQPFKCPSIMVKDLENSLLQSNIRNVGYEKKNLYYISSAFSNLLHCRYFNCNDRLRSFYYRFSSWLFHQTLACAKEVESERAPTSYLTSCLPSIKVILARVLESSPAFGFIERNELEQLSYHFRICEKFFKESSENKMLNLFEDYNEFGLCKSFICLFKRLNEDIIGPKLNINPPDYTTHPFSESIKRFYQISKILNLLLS


Legend:
[1] = biological target: Ccq1(500–735), the C-terminal coiled-coil motifs region, as GAL4 fusion (fission yeast) (UniProt Q10432); experiment: two-hybrid; Matchmaker Gold; Ccq1 truncations fused to the GAL4 activation domain, Ccq1 C-terminus fragments, Tpz1 or Clr3 fused to the GAL4 DNA binding domain; selection plate lacks adenine and histidine; 28°C, 2–3 days (Figures 4A, 5A)
[2] = biological target: T1, Clr3 fused to the GAL4 DNA binding domain (fission yeast); experiment: as above
[3] = biological target: T2, Est1 fused to the GAL4 DNA binding domain (fission yeast); experiment: two-hybrid; Matchmaker Gold; Ccq1 truncations fused to the GAL4 activation domain, partners fused to the GAL4 DNA binding domain; budding yeast, plates at 28°C for 2–3 days; Supplementary Figure S2A, its selection plate not shown (lacking adenine and histidine, or lacking histidine with 1 mM 3-AT)

| Binder | binding [1] | binding [2] | binding [3] |
| --- | --- | --- | --- |
| Ccq1(500–735), the C-terminal coiled-coil motifs region, as GAL4 fusion (domain or fragment, UniProt Q10432 500-735) ADEVELSNNYDLQGAAVQYLQRRLRMVEDELHEAINSKNVQQSRSEELEQQISKLTDNLQEYRNTVRELKLDLEKSKKKNEDLSKLEVEKVEEIANLKKELTHLAKQQEFGFKYVQEFSNEDLQGKLIEANEKNYKLTQLLKTQKEDADFITNQYQNASTFAAEQSKEVAKLQAECKRLQAINSKVMEEVKVYNDSRVEALLAKVSSLEETLKILEQKSLPKFTPHNQSPRIIDSN | binds | binds |  |
| Ccq1(131–441) fused to the GAL4 activation domain (domain or fragment, UniProt Q10432 131-441) FSVLDIGLPMSALQRKMMHRLVQYFAFCIDHFCTGPSDSRIQEKIRLFIQSAHNIAKHPSLYDTEVRNPSAAESTNSHVSLDASNFSSYAENSSKFLFLQELFKNLSPSYSKTFFLFISNQFLANTLTQWLKSQNIDAELWAEEDAKTSQHPAIWICVSKKAPSASHFLQSCPDLSATIFYDIEAYMSVTSSLPSIQSLVLRLIHLGSIEHAIKCFQSSYNASFLVNIVGVVATLSSSSEENSEASNLSTLFEKSGNFEEILGSESHSSITEKTRDIAKNVATWLKNGENFSSWPLPPLMDLASLSVAEPR |  |  | binds weakly |

Continued, values first:

| binding [1] | binding [2] | binding [3] | Binder |
| --- | --- | --- | --- |
|  |  | binds weakly | Ccq1(63–441) fused to the GAL4 activation domain (domain or fragment, UniProt Q10432 63-441) CMRNEEPASKQREIEKFLRTDLDHSENDFLTQEVDEFPSTQQLFPIPLQNDTAFDSSEESITKSSKSSFSVLDIGLPMSALQRKMMHRLVQYFAFCIDHFCTGPSDSRIQEKIRLFIQSAHNIAKHPSLYDTEVRNPSAAESTNSHVSLDASNFSSYAENSSKFLFLQELFKNLSPSYSKTFFLFISNQFLANTLTQWLKSQNIDAELWAEEDAKTSQHPAIWICVSKKAPSASHFLQSCPDLSATIFYDIEAYMSVTSSLPSIQSLVLRLIHLGSIEHAIKCFQSSYNASFLVNIVGVVATLSSSSEENSEASNLSTLFEKSGNFEEILGSESHSSITEKTRDIAKNVATWLKNGENFSSWPLPPLMDLASLSVAEPR |
|  | binds weakly |  | Ccq1(1–441) fused to the GAL4 activation domain (domain or fragment, UniProt Q10432 1-441) MSEINDFTNSIIINESDTKYEVYSEVNSSNRWIAKEDCPSPLEDVWLLKLAGHKRKLEEPLSCMRNEEPASKQREIEKFLRTDLDHSENDFLTQEVDEFPSTQQLFPIPLQNDTAFDSSEESITKSSKSSFSVLDIGLPMSALQRKMMHRLVQYFAFCIDHFCTGPSDSRIQEKIRLFIQSAHNIAKHPSLYDTEVRNPSAAESTNSHVSLDASNFSSYAENSSKFLFLQELFKNLSPSYSKTFFLFISNQFLANTLTQWLKSQNIDAELWAEEDAKTSQHPAIWICVSKKAPSASHFLQSCPDLSATIFYDIEAYMSVTSSLPSIQSLVLRLIHLGSIEHAIKCFQSSYNASFLVNIVGVVATLSSSSEENSEASNLSTLFEKSGNFEEILGSESHSSITEKTRDIAKNVATWLKNGENFSSWPLPPLMDLASLSVAEPR |
|  |  | binds | full length Ccq1 fused to the GAL4 activation domain (protein, UniProt Q10432 1-735) MSEINDFTNSIIINESDTKYEVYSEVNSSNRWIAKEDCPSPLEDVWLLKLAGHKRKLEEPLSCMRNEEPASKQREIEKFLRTDLDHSENDFLTQEVDEFPSTQQLFPIPLQNDTAFDSSEESITKSSKSSFSVLDIGLPMSALQRKMMHRLVQYFAFCIDHFCTGPSDSRIQEKIRLFIQSAHNIAKHPSLYDTEVRNPSAAESTNSHVSLDASNFSSYAENSSKFLFLQELFKNLSPSYSKTFFLFISNQFLANTLTQWLKSQNIDAELWAEEDAKTSQHPAIWICVSKKAPSASHFLQSCPDLSATIFYDIEAYMSVTSSLPSIQSLVLRLIHLGSIEHAIKCFQSSYNASFLVNIVGVVATLSSSSEENSEASNLSTLFEKSGNFEEILGSESHSSITEKTRDIAKNVATWLKNGENFSSWPLPPLMDLASLSVAEPRDSQPSVSQVNDTFVKSSDSTFPSSQSMQSPSKLHSLTSNATDLLSSSSLKKNFFSQQEADEVELSNNYDLQGAAVQYLQRRLRMVEDELHEAINSKNVQQSRSEELEQQISKLTDNLQEYRNTVRELKLDLEKSKKKNEDLSKLEVEKVEEIANLKKELTHLAKQQEFGFKYVQEFSNEDLQGKLIEANEKNYKLTQLLKTQKEDADFITNQYQNASTFAAEQSKEVAKLQAECKRLQAINSKVMEEVKVYNDSRVEALLAKVSSLEETLKILEQKSLPKFTPHNQSPRIIDSN |
